Laboratory results taken from PubChem BioAssay AID330 (DTP/NCI, 2004).
The list shows only some results of the screen, not a fair sample: it is rich in T/C values a quarter to a half above the control, in often repeated tests (any T/C) and in doses without a T/C. Further doses and runs are listed elsewhere. T/C is the treated group as % of the vehicle group. Some doses have a count of surviving animals in place of a T/C: the source files T/C as zero there, which appears to mark a toxic dose or a test without result, not a measured value. Some survivor counts are full or nearly so, which does not show that the dose was tolerated: survival well below the control is almost never listed, so the zero probably covers shortened survival too. Counts of survivors are from the toxicity check (mostly the fifth day) where no day follows; animals may have died later. Schedule codes are those of the source, taken here to give the interval after Q, in days (D) or hours (H), and the number of doses after X. Where survival is the endpoint, the PubChem record calls one and a half times the control and up active, and a quarter to a half above the control has no call in these data; cut-offs in other NCI protocols can differ. Some doses were run more than once; the values are given in rising order. Some T/C values carry the count of animals alive at the toxicity check (mostly the fifth day); without a count, all were alive then.

Tested on: P388 leukemia ip, CD2F1 mice, survival T/C
Test: NCI In Vivo Anticancer Drug Screen. Data for tumor model P388 Leukemia (intraperitoneal) in CD2F1 (CDF1) mice
Conditions: T/C endpoint: median survival time, higher T/C = longer survival
[1] = dose: 50.0 mg/kg/injection, schedule: Q01DX009 (ip), vehicle: saline with Tween-80
[2] = dose: 100.0 mg/kg/injection, schedule: Q04DX003 (ip), vehicle: saline
[3] = dose: 200.0 mg/kg/injection, schedule: Q04DX003 (ip), vehicle: saline
[4] = dose: 400.0 mg/kg/injection, schedule: Q04DX003 (ip), vehicle: saline
[5] = dose: 400.0 mg/kg/injection, schedule: Q04DX003 (ip), vehicle: saline with Tween-80
[6] = dose: 200.0 mg/kg/injection, schedule: Q01DX005 (ip), vehicle: saline with Tween-80
[7] = dose: 200.0 mg/kg/injection, schedule: Q01DX005 (ip), vehicle: Klucel (hydroxypropylcellulose) (HPC)
[8] = dose: 100.0 mg/kg/injection, schedule: Q04DX003 (ip), vehicle: saline with Tween-80
[9] = dose: 200.0 mg/kg/injection, schedule: Q01DX009 (ip), vehicle: saline
[10] = dose: 200.0 mg/kg/injection, schedule: Q01DX009 (ip), vehicle: Klucel (hydroxypropylcellulose) (HPC)
[11] = dose: 120.0 mg/kg/injection, schedule: Q01DX005 (ip), vehicle: saline with Tween-80

O=C1C(Br)=CC(=NCl)C=C1Br
survivor count [1]: 3 of 6

C/C(=N\NC(=S)N1CCN(C)CC1)c1ccccn1
survivor count [2]: 2 of 6 | survivor count [3]: 0 of 6 | survivor count [4]: 0 of 6

ClCC1CCN(Cc2ccccc2)CC1
survivor count [5]: 1 of 6

CCn1c2ccccc2c2cc(N=Nc3ccc4c(c3)c3ccccc3n4CC)ccc21
survivor count (dose: 200.0 mg/kg/injection, schedule: Q01DX009 (ip), vehicle: saline with Tween-80): 4 of 6

O=C(c1cccs1)C1NO[N+]([O-])=C1c1cccs1 (stereo unspecified)
survivor count (dose: 50.0 mg/kg/injection, schedule: Q01DX005 (ip), vehicle: saline with Tween-80): 3 of 6 | survivor count (dose: 100.0 mg/kg/injection, schedule: Q01DX005 (ip), vehicle: saline with Tween-80): 0 of 6 | survivor count [6]: 0 of 6

COc1ccc2c(C)cc(N/N=C(\C)c3cn(C)n(-c4ccccc4)c3=O)nc2c1
survivor count [7]: 0 of 6

CCCCN(C)N=Nc1c(C(N)=O)n[nH]c1C
T/C (dose: 66.0 mg/kg/injection, schedule: Q04DX003 (ip), vehicle: saline with Tween-80): 140 % of control | T/C [8]: 136 % of control | T/C (dose: 150.0 mg/kg/injection, schedule: Q04DX003 (ip), vehicle: saline with Tween-80): 127 % of control | survivor count [5]: 1 of 6

O=C1c2cccc3c([N+](=O)[O-])ccc(c23)C(=O)N1CCCN1CCOCC1
survivor count [6]: 4 of 6

Fc1ccc(Nc2c3ccccc3nc3c2cnn3-c2ccccc2)cc1
survivor count (dose: 120.0 mg/kg/injection, schedule: Q01DX005 (ip), vehicle: Klucel (hydroxypropylcellulose) (HPC)): 6 of 6

O=C(Nc1ccccc1Cl)Oc1ccc(-c2ccccc2)cc1Br
T/C (dose: 100.0 mg/kg/injection, schedule: Q01DX009 (ip), vehicle: saline with Tween-80): 129 and 133 % of control | survivor count (dose: 400.0 mg/kg/injection, schedule: Q01DX009 (ip), vehicle: saline with Tween-80): 3 of 6

C[N+](C)(N)Cc1nc(-c2ccc(Cl)cc2)no1
survivor count [9]: 0 of 6

CCOP1(=O)CCCCN1Cc1ccccc1 (stereo unspecified)
survivor count [9]: 2 of 6

Cc1cccc(/C(=C\c2ccc([N+](=O)[O-])cc2)C(=O)Nc2ccc(S(=O)(=O)F)c(C)c2)c1
survivor count (dose: 240.0 mg/kg/injection, schedule: Q01DX005 (ip), vehicle: Klucel (hydroxypropylcellulose) (HPC)): 6 of 6

COc1ccc2c(c1)CCC(c1nc3cccc([N+](=O)[O-])c3[nH]c1=O)=C2O
survivor count (dose: 60.0 mg/kg/injection, schedule: Q01DX005 (ip), vehicle: Klucel + Tween-80): 6 of 6 | survivor count (dose: 120.0 mg/kg/injection, schedule: Q01DX005 (ip), vehicle: Klucel + Tween-80): 6 of 6 | survivor count (dose: 240.0 mg/kg/injection, schedule: Q01DX005 (ip), vehicle: Klucel + Tween-80): 4 of 6

C=CC(=O)NC(=O)Nc1ccccc1Cl
survivor count (dose: 50.0 mg/kg/injection, schedule: Q01DX009 (ip), vehicle: Klucel (hydroxypropylcellulose) (HPC)): 3 of 6 | survivor count (dose: 100.0 mg/kg/injection, schedule: Q01DX009 (ip), vehicle: Klucel (hydroxypropylcellulose) (HPC)): 0 of 6 | survivor count [10]: 0 of 6

CCCCCCC(C)[N+](C)(C)C (stereo unspecified)
survivor count [2]: 0 of 6 | survivor count [3]: 0 of 6 | survivor count [4]: 0 of 6

CCOC(=O)C(Cc1ccc(N(CCCl)CCCl)cc1)NC(=O)CNC(C)=O (stereo unspecified)
T/C (dose: 2.0 mg/kg/injection, schedule: Q04DX003 (ip), vehicle: saline with Tween-80): 127 % of control | T/C (dose: 3.13 mg/kg/injection, schedule: Q04DX003 (ip), vehicle: saline): 130 % of control | T/C (dose: 6.25 mg/kg/injection, schedule: Q04DX003 (ip), vehicle: saline): 140 % of control | survivor count [1]: 6 of 6 | survivor count (dose: 75.0 mg/kg/injection, schedule: Q04DX003 (ip), vehicle: saline with Tween-80): 6 of 6 | survivor count [8]: 6 of 6 | survivor count [2]: 6 of 6 | survivor count (dose: 200.0 mg/kg/injection, schedule: Q04DX003 (ip), vehicle: saline with Tween-80): 2 of 6 | survivor count [3]: 3 of 6 | survivor count [5]: 4 of 6

CN=C(N)N/N=C(\C)c1ccc2sc3ccc(/C(C)=N/NC(N)=NC)cc3c2c1
T/C (dose: 25.0 mg/kg/injection, schedule: Q04DX002 (ip), vehicle: saline with Tween-80): 144 % of control | T/C (dose: 50.0 mg/kg/injection, schedule: Q04DX002 (ip), vehicle: saline with Tween-80): 144 % of control | T/C (dose: 100.0 mg/kg/injection, schedule: Q04DX002 (ip), vehicle: saline with Tween-80): 135 % of control [4 of 6 alive]

O=c1c2ccccc2nnn1O
survivor count (dose: 400.0 mg/kg/injection, schedule: Q04DX003 (ip), vehicle: Klucel (hydroxypropylcellulose) (HPC)): 0 of 6

O=[N+]([O-])c1cc(C(Nc2nncs2)Nc2nncs2)ccc1Cl
T/C [11]: 137 % of control [5 of 6 alive] | survivor count [11]: 6 of 6 | T/C (dose: 240.0 mg/kg/injection, schedule: Q01DX005 (ip), vehicle: saline with Tween-80): 128 % of control

C1CCC([Se][Se]C2CCCCC2)CC1
survivor count [10]: 1 of 6

CCC(=O)[C@]1(O)Cc2c(O)c3c(c(O)c2[C@@H](OC2CC(N)C(O)C(C)O2)C1)C(=O)c1c(OC)cccc1C3=O (stereo partly specified)
T/C (dose: 25.0 mg/kg/injection, schedule: Q04DX003 (ip), vehicle: water): 127 % of control | T/C (dose: 50.0 mg/kg/injection, schedule: Q04DX003 (ip), vehicle: water): 127 % of control | survivor count (dose: 100.0 mg/kg/injection, schedule: Q04DX003 (ip), vehicle: water): 0 of 3 | survivor count (dose: 200.0 mg/kg/injection, schedule: Q04DX003 (ip), vehicle: water): 0 of 3

CC(=O)OC1C2CCC3C(C)(O)C4CC(O)C(C)(C)C4(O)C(O)CC13CC2(C)O (stereo unspecified)
survivor count (dose: 0.78 mg/kg/injection, schedule: Q01DX009 (ip), vehicle: saline): 2 of 6 | survivor count (dose: 1.56 mg/kg/injection, schedule: Q01DX009 (ip), vehicle: saline): 0 of 6 | survivor count (dose: 2.0 mg/kg/injection, schedule: Q01DX009 (ip), vehicle: saline): 0 of 6 | survivor count (dose: 3.12 mg/kg/injection, schedule: Q01DX009 (ip), vehicle: saline): 0 of 6 | survivor count (dose: 6.25 mg/kg/injection, schedule: Q01DX009 (ip), vehicle: saline): 0 of 6 | survivor count (dose: 12.5 mg/kg/injection, schedule: Q01DX009 (ip), vehicle: saline): 0 of 6 | survivor count (dose: 25.0 mg/kg/injection, schedule: Q01DX009 (ip), vehicle: saline): 0 of 6 | survivor count (dose: 50.0 mg/kg/injection, schedule: Q01DX009 (ip), vehicle: saline): 0 of 6

O=C(C[n+]1cc2ccccc2c2ccccc21)c1ccc(-c2ccccc2)cc1
survivor count [7]: 0 of 5

Nc1ccc2oc3ccccc3c2c1
survivor count [5]: 5 of 6

CCCCCCCCCCCCCCCC(=O)N(CCC#N)CCC#N
T/C [1]: 140 % of control

CC(=O)OC1C(O)C(C)OC(OC(=O)C2CCC3C(C2)OC2(CC(OC(=O)/C=C/c4ccccc4)C(C)CO2)C32CO2)C1OC1OC(C)C(O)C(O)C1O (stereo unspecified)
T/C (dose: 4.0 mg/kg/injection, schedule: Q01DX005 (ip), vehicle: saline + alcohol): 127 % of control | T/C (dose: 8.0 mg/kg/injection, schedule: Q01DX005 (ip), vehicle: saline + alcohol): 128 and 134 % of control | T/C (dose: 16.0 mg/kg/injection, schedule: Q01DX005 (ip), vehicle: saline + alcohol): 140 % of control

CCCCOC(=O)C1(N)CCCC1
survivor count [4]: 4 of 6

COC(=O)c1[nH]c(=O)c(C#N)c(C(=O)OC)c1C(=O)c1ccncc1
survivor count [6]: 3 of 6

COc1cccc2c1C(=O)c1c(O)c3c(c(O)c1C2=O)CC(O)(C(=O)COC(C)=O)CC3OC1CC(NC(C)=O)C(O)C(C)O1 (stereo unspecified)
T/C (dose: 1.56 mg/kg/injection, schedule: Q01DX009 (ip), vehicle: other): 127 % of control | T/C (dose: 6.25 mg/kg/injection, schedule: Q01DX009 (ip), vehicle: other): 129 % of control | T/C (dose: 12.5 mg/kg/injection, schedule: Q01DX009 (ip), vehicle: other): 131 % of control
